Laboratory results: PubChem BioAssay AID504764 (Drosophila RNAi Screening Center, 2011)
In all, the deposit lists about 22,000 reagents; shown is an unselected part of those that have a named target and a result. Of all reagents, 403 (1.9%) are marked active. 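Unnormalised raw counts per well; ratio z-scores behind the hit calls and whether each hit raises or lowers signal are not deposited.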 Entries without a mark were called inactive. No sequences are given here. Not given: the amount of reagent.

Assay: 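Genome-wide screen for regulators of Notch-driven gene expression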 (primary screen)
Cells: Drosophila Kc167 cells
Knock-down reagent: long dsRNA against Drosophila genes
Timing: about 5 days (4 days dsRNA, then 24 h after transfection)
Conditions: transfection of constitutively active membrane-tethered Notch lacking the extracellular domain, read 24 h later
Detection: 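Light from a Notch-responsive E(spl)m3 luciferase reporter under active Notch, with control-promoter and no-Notch reporter wells to normalise; raw counts from paired wells a and b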
Scale: induced reporter light, run 1, well a and induced reporter light, run 1, well b: higher = more light from the Notch target reporter with active Notch; control promoter light, run 1, well a and control promoter light, run 1, well b: higher = more light from the viral control promoter (cell number, transfection, viability); uninduced reporter light, run 1, well a: higher = more light from the Notch target reporter without active Notch
Hit rule: 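Wells with low control signal or poorly matching duplicates excluded; duplicates averaged; per source plate, z beyond ±2 for induced/control log2 ratio or beyond ±1.8 for induced/uninduced marks a hit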
Calls: active = modifier hit (raised or lowered Notch signal); inactive = not a hit

CG14082 [DRSC10086]: induced reporter light, run 1, well a = 1.17e5; induced reporter light, run 1, well b = 1.03e5; control promoter light, run 1, well a = 69910; control promoter light, run 1, well b = 70025; uninduced reporter light, run 1, well a = 6340
CG5107 [DRSC15716]: induced reporter light, run 1, well a = 2.78e5 (active); induced reporter light, run 1, well b = 2.60e5; control promoter light, run 1, well a = 2.62e5; control promoter light, run 1, well b = 2.40e5; uninduced reporter light, run 1, well a = 15290
Jhbp1 (Juvenile hormone binding protein 1) [DRSC12167]: induced reporter light, run 1, well a = 90475; induced reporter light, run 1, well b = 71495; control promoter light, run 1, well a = 1.12e5; control promoter light, run 1, well b = 95500; uninduced reporter light, run 1, well a = 9605
CG14689 [DRSC14912]: induced reporter light, run 1, well a = 79610; induced reporter light, run 1, well b = 80745; control promoter light, run 1, well a = 84495; control promoter light, run 1, well b = 65050; uninduced reporter light, run 1, well a = 6005
bru3 (bruno 3) [DRSC09280]: induced reporter light, run 1, well a = 1.74e5; induced reporter light, run 1, well b = 1.85e5; control promoter light, run 1, well a = 2.75e5; control promoter light, run 1, well b = 2.84e5; uninduced reporter light, run 1, well a = 17392
bru3 (bruno 3) [DRSC09687]: induced reporter light, run 1, well a = 1.52e5; induced reporter light, run 1, well b = 1.70e5; control promoter light, run 1, well a = 1.10e5; control promoter light, run 1, well b = 1.34e5; uninduced reporter light, run 1, well a = 13680
bru3 (bruno 3) [DRSC09887]: induced reporter light, run 1, well a = 64030; induced reporter light, run 1, well b = 49745; control promoter light, run 1, well a = 83180; control promoter light, run 1, well b = 69950; uninduced reporter light, run 1, well a = 5000
Acbp6 (Acyl-CoA binding protein 6) [DRSC10217]: induced reporter light, run 1, well a = 2.76e5; induced reporter light, run 1, well b = 1.96e5; control promoter light, run 1, well a = 3.40e5; control promoter light, run 1, well b = 2.45e5; uninduced reporter light, run 1, well a = 11480
CG13871 [DRSC06430]: induced reporter light, run 1, well a = 1.07e5; induced reporter light, run 1, well b = 96940; control promoter light, run 1, well a = 1.07e5; control promoter light, run 1, well b = 1.07e5; uninduced reporter light, run 1, well a = 7950
mib2 (mind bomb 2) [DRSC02623]: induced reporter light, run 1, well a = 1.99e5; induced reporter light, run 1, well b = 1.95e5; control promoter light, run 1, well a = 2.36e5; control promoter light, run 1, well b = 2.22e5; uninduced reporter light, run 1, well a = 13520
IA-2 (IA-2 protein tyrosine phosphatase) [DRSC00304]: induced reporter light, run 1, well a = 1.70e5; induced reporter light, run 1, well b = 1.89e5; control promoter light, run 1, well a = 1.88e5; control promoter light, run 1, well b = 1.69e5; uninduced reporter light, run 1, well a = 15905
IA-2 (IA-2 protein tyrosine phosphatase) [DRSC00652]: induced reporter light, run 1, well a = 1.71e5; induced reporter light, run 1, well b = 1.60e5; control promoter light, run 1, well a = 1.67e5; control promoter light, run 1, well b = 1.62e5; uninduced reporter light, run 1, well a = 12810

Records above whose target name begins with C or c (4):
CG14082 [DRSC10086]: induced reporter light, run 1, well a = 1.17e5; induced reporter light, run 1, well b = 1.03e5; control promoter light, run 1, well a = 69910; control promoter light, run 1, well b = 70025; uninduced reporter light, run 1, well a = 6340
CG5107 [DRSC15716]: induced reporter light, run 1, well a = 2.78e5 (active); induced reporter light, run 1, well b = 2.60e5; control promoter light, run 1, well a = 2.62e5; control promoter light, run 1, well b = 2.40e5; uninduced reporter light, run 1, well a = 15290
CG14689 [DRSC14912]: induced reporter light, run 1, well a = 79610; induced reporter light, run 1, well b = 80745; control promoter light, run 1, well a = 84495; control promoter light, run 1, well b = 65050; uninduced reporter light, run 1, well a = 6005
CG13871 [DRSC06430]: induced reporter light, run 1, well a = 1.07e5; induced reporter light, run 1, well b = 96940; control promoter light, run 1, well a = 1.07e5; control promoter light, run 1, well b = 1.07e5; uninduced reporter light, run 1, well a = 7950
